Common to all, as to test: log2 fold change, soluble protein after heating vs DMSO (PISA); higher = thermal stabilisation; K562 lysate, 10 uM; active = over 0.2 and 3.5 SD of the protein, either way, in both replicates (recomputed)
Compound in assay [1]: CC1=C2C(=CC=C1)N=C(N(C2=O)C3=CC=CC=C3C)CN4C=NC5=C(N=CN=C54)N
In short, it runs like this: (§1)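 Values give the log-two fold change in thermal stability against solvent controls, from duplicates. Crude K562 extract at 1 mg/mL protein, made by dounce homogenisation in PBS pH 7.4 with 1 mM MgCl2, was treated with 10 μM compound for 30 min. After 3 min heating across 48°C-58°C, aliquots were pooled, adjusted to 0.5% NP-40 at 4°C and centrifuged at 21,000xg for 90 min. The supernatant was measured by TMTpro 16plex LC-MS/MS with channel sums equalised.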

Protein sequences, listed by entry. Tags and fused reporters are not part of them. Lines headed by an entry give the natural chain unless they say otherwise; changes in a name come on top.
UniProt Q8N6L1: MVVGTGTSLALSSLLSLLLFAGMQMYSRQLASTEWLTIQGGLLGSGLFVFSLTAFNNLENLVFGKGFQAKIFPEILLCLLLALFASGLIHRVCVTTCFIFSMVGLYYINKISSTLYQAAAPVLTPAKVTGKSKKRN
UniProt O00139: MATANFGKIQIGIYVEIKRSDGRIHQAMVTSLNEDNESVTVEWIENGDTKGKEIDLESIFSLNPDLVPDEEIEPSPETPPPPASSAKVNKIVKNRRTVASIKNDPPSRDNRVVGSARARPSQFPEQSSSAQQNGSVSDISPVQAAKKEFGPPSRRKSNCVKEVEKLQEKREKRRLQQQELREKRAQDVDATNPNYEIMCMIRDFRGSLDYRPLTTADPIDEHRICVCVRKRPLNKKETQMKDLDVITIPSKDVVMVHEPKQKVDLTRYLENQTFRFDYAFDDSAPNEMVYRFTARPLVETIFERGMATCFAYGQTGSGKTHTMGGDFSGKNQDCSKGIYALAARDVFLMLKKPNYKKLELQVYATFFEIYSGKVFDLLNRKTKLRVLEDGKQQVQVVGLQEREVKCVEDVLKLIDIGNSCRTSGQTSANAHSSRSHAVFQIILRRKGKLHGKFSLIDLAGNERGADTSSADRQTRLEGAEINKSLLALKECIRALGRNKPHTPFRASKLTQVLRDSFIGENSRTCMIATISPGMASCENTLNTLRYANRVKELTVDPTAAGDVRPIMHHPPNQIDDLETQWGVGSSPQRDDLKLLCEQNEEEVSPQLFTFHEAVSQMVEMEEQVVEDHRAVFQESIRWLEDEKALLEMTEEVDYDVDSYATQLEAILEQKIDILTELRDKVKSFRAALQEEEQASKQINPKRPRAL
UniProt Q9Y2M5: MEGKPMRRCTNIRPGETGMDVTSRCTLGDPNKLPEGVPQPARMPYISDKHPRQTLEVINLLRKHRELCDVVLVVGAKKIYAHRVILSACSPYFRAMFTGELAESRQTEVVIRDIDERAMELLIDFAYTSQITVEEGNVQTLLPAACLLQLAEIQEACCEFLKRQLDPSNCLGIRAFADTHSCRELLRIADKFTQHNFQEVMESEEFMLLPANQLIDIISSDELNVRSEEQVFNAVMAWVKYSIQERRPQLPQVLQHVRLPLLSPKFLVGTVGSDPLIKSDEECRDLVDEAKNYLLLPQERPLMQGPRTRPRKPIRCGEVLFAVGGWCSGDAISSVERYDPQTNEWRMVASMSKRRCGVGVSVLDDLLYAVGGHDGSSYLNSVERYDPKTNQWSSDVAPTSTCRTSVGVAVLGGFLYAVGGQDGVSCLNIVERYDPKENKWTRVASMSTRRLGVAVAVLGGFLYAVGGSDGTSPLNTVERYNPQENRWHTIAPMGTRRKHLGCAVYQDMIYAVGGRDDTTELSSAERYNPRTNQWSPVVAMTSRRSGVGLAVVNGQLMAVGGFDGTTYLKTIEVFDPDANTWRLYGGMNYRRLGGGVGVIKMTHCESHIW
UniProt O60333: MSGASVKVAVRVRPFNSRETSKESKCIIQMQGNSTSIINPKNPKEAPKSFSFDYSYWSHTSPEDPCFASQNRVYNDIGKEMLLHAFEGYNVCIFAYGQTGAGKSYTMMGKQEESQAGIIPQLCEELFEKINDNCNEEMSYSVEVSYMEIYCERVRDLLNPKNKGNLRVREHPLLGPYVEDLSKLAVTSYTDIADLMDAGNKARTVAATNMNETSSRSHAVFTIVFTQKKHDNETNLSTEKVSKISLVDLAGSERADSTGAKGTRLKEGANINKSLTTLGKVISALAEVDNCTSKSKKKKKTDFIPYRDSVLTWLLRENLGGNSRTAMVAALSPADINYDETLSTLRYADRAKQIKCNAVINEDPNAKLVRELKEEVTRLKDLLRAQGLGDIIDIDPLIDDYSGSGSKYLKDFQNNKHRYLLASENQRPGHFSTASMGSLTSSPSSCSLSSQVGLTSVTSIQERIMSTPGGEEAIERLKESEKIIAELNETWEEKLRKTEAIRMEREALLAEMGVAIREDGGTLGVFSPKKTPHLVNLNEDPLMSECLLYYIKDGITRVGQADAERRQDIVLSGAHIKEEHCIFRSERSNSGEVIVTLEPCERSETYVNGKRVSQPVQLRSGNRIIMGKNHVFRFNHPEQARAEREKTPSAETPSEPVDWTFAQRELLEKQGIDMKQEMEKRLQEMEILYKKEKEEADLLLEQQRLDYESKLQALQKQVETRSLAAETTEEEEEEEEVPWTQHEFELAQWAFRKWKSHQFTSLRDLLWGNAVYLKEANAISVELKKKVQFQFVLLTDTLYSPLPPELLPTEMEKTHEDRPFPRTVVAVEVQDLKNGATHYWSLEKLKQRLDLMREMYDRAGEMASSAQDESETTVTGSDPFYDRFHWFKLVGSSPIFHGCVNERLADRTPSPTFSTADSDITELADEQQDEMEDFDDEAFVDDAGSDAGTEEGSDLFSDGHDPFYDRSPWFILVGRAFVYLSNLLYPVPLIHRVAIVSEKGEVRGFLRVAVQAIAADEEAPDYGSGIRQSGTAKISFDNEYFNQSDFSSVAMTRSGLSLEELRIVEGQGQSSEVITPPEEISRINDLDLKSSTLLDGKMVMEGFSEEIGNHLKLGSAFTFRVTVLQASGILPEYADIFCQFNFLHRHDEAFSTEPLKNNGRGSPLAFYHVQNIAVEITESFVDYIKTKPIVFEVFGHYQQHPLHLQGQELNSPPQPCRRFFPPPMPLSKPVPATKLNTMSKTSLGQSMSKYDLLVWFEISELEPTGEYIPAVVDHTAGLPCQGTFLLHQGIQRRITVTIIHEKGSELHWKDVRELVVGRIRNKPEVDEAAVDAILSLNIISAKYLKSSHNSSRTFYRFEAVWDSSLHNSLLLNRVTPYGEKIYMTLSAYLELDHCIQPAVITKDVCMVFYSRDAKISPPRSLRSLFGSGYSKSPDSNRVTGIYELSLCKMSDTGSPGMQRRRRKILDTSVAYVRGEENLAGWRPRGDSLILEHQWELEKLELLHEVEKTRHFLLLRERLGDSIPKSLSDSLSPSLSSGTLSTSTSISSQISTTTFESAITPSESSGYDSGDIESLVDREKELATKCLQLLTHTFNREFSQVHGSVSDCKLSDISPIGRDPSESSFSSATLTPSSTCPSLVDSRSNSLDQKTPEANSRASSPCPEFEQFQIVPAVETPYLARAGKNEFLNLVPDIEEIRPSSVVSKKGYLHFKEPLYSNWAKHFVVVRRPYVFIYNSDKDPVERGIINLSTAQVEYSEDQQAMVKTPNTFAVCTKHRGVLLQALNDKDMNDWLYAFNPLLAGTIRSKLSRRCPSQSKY
UniProt Q969R5, whole entry, looked up: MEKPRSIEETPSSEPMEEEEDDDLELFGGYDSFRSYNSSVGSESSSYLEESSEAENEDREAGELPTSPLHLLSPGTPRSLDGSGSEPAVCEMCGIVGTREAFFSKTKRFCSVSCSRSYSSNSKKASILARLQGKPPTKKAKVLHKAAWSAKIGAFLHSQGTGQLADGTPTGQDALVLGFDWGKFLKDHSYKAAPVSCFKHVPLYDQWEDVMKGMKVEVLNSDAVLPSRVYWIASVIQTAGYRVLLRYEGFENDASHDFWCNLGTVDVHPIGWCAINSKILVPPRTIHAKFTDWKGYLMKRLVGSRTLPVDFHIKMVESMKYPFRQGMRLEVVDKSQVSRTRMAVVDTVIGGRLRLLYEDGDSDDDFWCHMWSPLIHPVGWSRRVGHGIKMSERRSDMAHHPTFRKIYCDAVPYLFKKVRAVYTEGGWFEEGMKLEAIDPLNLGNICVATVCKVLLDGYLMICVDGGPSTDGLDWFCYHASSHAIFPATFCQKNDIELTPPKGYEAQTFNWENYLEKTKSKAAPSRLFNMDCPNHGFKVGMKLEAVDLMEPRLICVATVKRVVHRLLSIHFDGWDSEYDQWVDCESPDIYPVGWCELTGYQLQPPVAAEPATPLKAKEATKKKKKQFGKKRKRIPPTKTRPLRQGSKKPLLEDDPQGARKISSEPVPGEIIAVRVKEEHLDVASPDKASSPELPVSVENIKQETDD
UniProt P29375: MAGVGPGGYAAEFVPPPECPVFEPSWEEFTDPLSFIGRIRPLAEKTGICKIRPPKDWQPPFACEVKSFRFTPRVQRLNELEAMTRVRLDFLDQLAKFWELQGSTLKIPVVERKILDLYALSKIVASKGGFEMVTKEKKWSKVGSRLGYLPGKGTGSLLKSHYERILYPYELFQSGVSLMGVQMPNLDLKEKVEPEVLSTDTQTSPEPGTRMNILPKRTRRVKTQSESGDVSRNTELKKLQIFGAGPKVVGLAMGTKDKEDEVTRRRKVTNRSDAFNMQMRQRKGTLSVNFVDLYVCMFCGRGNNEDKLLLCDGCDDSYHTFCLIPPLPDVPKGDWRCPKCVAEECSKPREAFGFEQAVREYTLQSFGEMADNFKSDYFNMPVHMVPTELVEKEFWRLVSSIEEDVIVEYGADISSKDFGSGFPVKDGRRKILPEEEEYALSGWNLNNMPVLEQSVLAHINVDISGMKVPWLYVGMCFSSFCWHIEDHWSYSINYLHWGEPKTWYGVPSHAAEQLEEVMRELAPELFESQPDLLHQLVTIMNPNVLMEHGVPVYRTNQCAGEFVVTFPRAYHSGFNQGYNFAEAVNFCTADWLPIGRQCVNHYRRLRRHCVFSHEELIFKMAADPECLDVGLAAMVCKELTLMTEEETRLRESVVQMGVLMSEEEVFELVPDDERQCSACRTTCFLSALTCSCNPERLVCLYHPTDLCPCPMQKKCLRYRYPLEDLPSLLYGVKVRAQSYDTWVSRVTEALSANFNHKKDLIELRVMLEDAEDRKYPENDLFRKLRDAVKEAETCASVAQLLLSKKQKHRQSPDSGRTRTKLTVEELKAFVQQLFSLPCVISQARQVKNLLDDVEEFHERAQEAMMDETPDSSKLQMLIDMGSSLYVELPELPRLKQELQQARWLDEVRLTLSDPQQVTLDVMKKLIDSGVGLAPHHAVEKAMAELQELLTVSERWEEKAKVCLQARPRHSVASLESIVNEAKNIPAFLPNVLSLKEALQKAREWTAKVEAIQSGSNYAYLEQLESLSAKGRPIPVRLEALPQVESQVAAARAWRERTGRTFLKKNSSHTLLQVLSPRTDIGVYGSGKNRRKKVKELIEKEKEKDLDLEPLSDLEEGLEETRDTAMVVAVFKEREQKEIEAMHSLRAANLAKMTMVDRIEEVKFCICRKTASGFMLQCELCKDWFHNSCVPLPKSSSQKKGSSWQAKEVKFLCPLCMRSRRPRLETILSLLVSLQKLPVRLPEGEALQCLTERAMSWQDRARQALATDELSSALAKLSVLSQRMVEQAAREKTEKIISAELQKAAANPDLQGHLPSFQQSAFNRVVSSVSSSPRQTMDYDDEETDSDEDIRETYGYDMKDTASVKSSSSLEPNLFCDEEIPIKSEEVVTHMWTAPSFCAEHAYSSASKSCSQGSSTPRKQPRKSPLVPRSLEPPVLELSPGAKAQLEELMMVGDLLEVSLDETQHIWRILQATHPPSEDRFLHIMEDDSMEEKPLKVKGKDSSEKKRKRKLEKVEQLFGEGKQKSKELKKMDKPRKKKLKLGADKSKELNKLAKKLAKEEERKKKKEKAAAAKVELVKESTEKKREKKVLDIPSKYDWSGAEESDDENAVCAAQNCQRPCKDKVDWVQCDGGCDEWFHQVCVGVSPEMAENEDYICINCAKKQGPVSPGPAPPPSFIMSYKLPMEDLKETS
UniProt Q92845: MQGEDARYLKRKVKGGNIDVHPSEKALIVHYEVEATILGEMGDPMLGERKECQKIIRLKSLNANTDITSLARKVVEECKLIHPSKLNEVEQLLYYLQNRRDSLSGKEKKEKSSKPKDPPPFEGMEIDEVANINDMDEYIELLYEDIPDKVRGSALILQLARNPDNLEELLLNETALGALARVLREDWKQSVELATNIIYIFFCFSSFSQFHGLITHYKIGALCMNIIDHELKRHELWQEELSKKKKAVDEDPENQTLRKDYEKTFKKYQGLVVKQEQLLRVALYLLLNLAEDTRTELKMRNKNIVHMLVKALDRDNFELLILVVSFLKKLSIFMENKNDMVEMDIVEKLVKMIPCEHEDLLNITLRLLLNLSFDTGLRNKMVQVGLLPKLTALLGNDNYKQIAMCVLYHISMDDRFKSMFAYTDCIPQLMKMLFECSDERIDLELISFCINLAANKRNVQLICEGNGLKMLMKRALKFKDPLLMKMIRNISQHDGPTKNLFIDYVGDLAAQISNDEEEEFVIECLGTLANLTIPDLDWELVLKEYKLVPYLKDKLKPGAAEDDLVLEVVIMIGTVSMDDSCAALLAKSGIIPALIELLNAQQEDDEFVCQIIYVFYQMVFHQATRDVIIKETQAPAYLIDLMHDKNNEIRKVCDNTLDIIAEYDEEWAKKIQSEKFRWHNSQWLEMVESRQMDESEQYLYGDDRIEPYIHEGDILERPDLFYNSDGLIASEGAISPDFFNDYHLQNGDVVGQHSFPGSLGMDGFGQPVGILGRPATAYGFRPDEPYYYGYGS

Compound in assay [2]: Cc1sc2c(c1C)C(c1ccc(Cl)cc1)=N[C@@H](CC(=O)OC(C)(C)C)c1nnc(C)n1-2
In outline: as §1

Compound in assay [3]: c1ccc([C@@H]2C[C@H]2NC2CCNCC2)cc1
In short, it runs like this: as §1

Compound in assay [4]: C1=CC=C(C=C1)[C@H](COC2=CC3=C(C=C2)NC(=O)N3)NC(=O)C4=CC=CN(C4=O)CC5=CC(=C(C=C5)F)F
In short, it runs like this: as §1

Compound in assay [5]: CC1=C(SC2=C1C(=N[C@H](C3=NN=C(N32)C)CC(=O)N)C4=CC=C(C=C4)Cl)C
In outline: as §1

This is one part of the list.

Regarding KLHDC2 (UniProt Q9Y2U9), the log2 fold change in assay [1] is inactive: 0.02.

For KDM4B (UniProt O94953), the log2 fold change in assay [1] is inactive: -0.141; in assay [2], inactive: 0.105; in assay [3], inactive: -0.035.

Consider LARGE2 (UniProt Q8N3Y3), for which the log2 fold change in assay [3] was inactive: 0.031.

As to KRAS (UniProt P01116), the values for the log2 fold change in assay [1], in assay [2] and in assay [3] were inactive: 0.088, inactive: 0.016 and inactive: -0.092, respectively.

For LAMB2 (UniProt P55268), the log2 fold change in assay [2] was inactive: -0.002.

In the case of LAPTM4A (UniProt Q15012), the log2 fold change is inactive: -0.2 in assay [1] and inactive: -0.103 in assay [2].

For KRTCAP2 isoform 2 (UniProt Q8N6L1), the values for the log2 fold change in assay [1], in assay [2] and in assay [3] were inactive: -0.02, inactive: 0.074 and inactive: -0.045, respectively.

KLHL7 (UniProt Q8IXQ5): the log2 fold change in assay [1] was inactive: 0.096; in assay [2], inactive: -0.05; in assay [3], inactive: 0.094.

Turning to KMT2D (UniProt O14686), the log2 fold change in assay [2] was inactive: 0.017.

In the case of KIF3C (UniProt O14782), the log2 fold change in assay [1] was inactive: 0.683; in assay [2] it was inactive: -0.059; in assay [3], inactive: 0.022.

For KIF2A isoform 2 (UniProt O00139), the log2 fold change in assay [3] is inactive: 0.326.

For the target KLHL17 (UniProt Q6TDP4), the figures for the log2 fold change in assay [4], in assay [5] and in assay [3] were inactive: 0.042, inactive: 0.071 and inactive: -0.08, respectively.

As for KIF3B (UniProt O15066), the log2 fold change in assay [4] was inactive: 0.055; in assay [5], inactive: 0.026; in assay [1] it was inactive: -0.025; in assay [3], inactive: -0.123.

On to KDM4C (UniProt Q9H3R0), for which the log2 fold change was inactive: 0.131 in assay [4], inactive: -0.122 in assay [5], inactive: -0.03 in assay [2] and inactive: 0.189 in assay [3].

As for KLHL20 (UniProt Q9Y2M5), the log2 fold change is inactive: -0.02 in assay [4], inactive: 0.025 in assay [5], inactive: -0.079 in assay [2] and inactive: -0.033 in assay [3].

Regarding KIF1B isoform 3 (UniProt O60333), the log2 fold change in assay [4] was inactive: -0.131; in assay [5], inactive: -0.024; in assay [2] it was inactive: 0.086; in assay [3] it was inactive: -0.194.

As for LAMP2 isoform 2 (UniProt P13473), the log2 fold change in assay [4] is inactive: -0.058; in assay [5] it was inactive: -0.027; in assay [3] it was inactive: 0.165.

On to LAMA5 (UniProt O15230), for which the log2 fold change in assay [4] was inactive: 0.151; in assay [5], inactive: -0.072; in assay [2] it was inactive: -0.058; in assay [3], inactive: -0.033.

Regarding L3MBTL2 (UniProt Q969R5), the figures for the log2 fold change in assay [2] and in assay [3] were inactive: -0.051 and inactive: -0.168, respectively.

In the case of KIF18B (UniProt Q86Y91), the log2 fold change in assay [2] is inactive: -0.083.

On to KMT5A (UniProt Q9NQR1), for which the log2 fold change in assay [3] is inactive: 0.029.

As for KLHL22 (UniProt Q53GT1), the log2 fold change in assay [1] is inactive: 0.025; in assay [2], inactive: 0.042; in assay [3], inactive: -0.169.

Regarding KIF20B isoform 2 (UniProt Q96Q89), the log2 fold change in assay [1] was inactive: 0.052; in assay [2], inactive: -0.175; in assay [3] it was inactive: 0.105.

Take KIDINS220 isoform 2 (UniProt Q9ULH0): the log2 fold change in assay [1] was inactive: 0.011.

In the case of KLC3 isoform 3 (UniProt Q6P597), the results for the log2 fold change in assay [4], in assay [5] and in assay [3] were inactive: -0.051, inactive: -0.033 and inactive: -0.031, respectively.

On to KDM5A (UniProt P29375), for which the log2 fold change was inactive: 0.011 in assay [2] and inactive: -0.043 in assay [3].

For the target KRAS isoform 2 (UniProt P01116), the log2 fold change in assay [2] is inactive: -0.006.

Regarding KLK3 (UniProt P07288), in assay [2], the log2 fold change is inactive: 0.333.

For LAPTM4B (UniProt Q86VI4), the values for the log2 fold change in assay [4], in assay [5] and in assay [3] were inactive: -0.014, inactive: 0.002 and inactive: -0.023, respectively.

KMT2E (UniProt Q8IZD2): the log2 fold change in assay [1] was inactive: 0.171; in assay [2], inactive: 0.004; in assay [3] it was inactive: 0.12.

For the target KIAA0586 isoform 3 (UniProt Q9BVV6), in assay [2], the log2 fold change is inactive: 0.02.

With KIFAP3 (UniProt Q92845), the log2 fold change was inactive: -0.007 in assay [4], inactive: -0.047 in assay [5], inactive: -0.055 in assay [2] and inactive: 0.041 in assay [3].

For KMT2B (UniProt Q9UMN6), in assay [2], the log2 fold change was inactive: -0.012.

For the target KIF21A (UniProt H0YI78), the figures for the log2 fold change in assay [4], in assay [5] and in assay [2] were inactive: 0.128, inactive: 0.02 and inactive: 0.106, respectively.

Consider KLHL7 isoform 3 (UniProt Q8IXQ5), for which the log2 fold change in assay [1] was inactive: 0.085; in assay [3], inactive: 0.08.

Values taken from the supplement of paper PMC10849652.
